Source: article PMC6199744, “Development of Chemical Proteomics for the Folateome and Analysis of the Kinetoplastid Folateome” (ACS Infectious Diseases, 2018)
This continues a long series; more values of the same kind are listed elsewhere.

Tested on: L. major lysate proteins
Assay: Multitargeted bead mixture chemoproteomics, single concentration competition, proteome-wide
Assay type: binding
Settings: for fold change: vehicle control = 1

Nc1nc2c(c(=O)[nH]1)N(C=O)C(CNc1ccc(C(=O)N[C@@H](CCC(=O)O)C(=O)O)cc1)CN2 (stereo partly drawn) [LEU, leucovorin]
fold change (protein LMJF.18.1380 PYRUVATE DEHYDROGENASE E1 COMPONENT ALPHA SUBUNIT, PUTATIVE): 1.06 | fold change (protein LMJF.18.1510 P-TYPE H -ATPASE, PUTATIVE): 0.9 | fold change vs vehicle control (protein LMJF.19.0300 RNA BINDING PROTEIN, PUTATIVE): 0.92 | fold change (protein LMJF.19.0750 HYPOTHETICAL PROTEIN, CONSERVED): 1 | fold change (protein LMJF.19.0995 4-COUMARATE:COA LIGASE-LIKE PROTEIN): 1.09 | fold change (protein LMJF.19.1530 PEPT[…]-LIKE PROTEIN): 1.14 | fold change (protein LMJF.20.0100 PHOSPH[…] C, GLYCOSOMAL): 1.02 | fold change vs vehicle control (protein LMJF.20.1180 CALPAIN-LIKE CYSTEINE PEPTIDASE, PUTATIVE,CYSTEINE PEPTIDASE, CLAN CA, FAMILY C2, PUTATIVE): 0.98 | fold change (protein LMJF.21.0540 LA RNA BINDING PROTEIN, PUTATIVE): 1.07 | fold change vs vehicle control (protein LMJF.21.1060 40S RIBOSOMAL PROTEIN S23, PUTATIVE): 1.02 | fold change (protein LMJF.21.1090 T-COMPLEX PROTEIN 1, DELTA SUBUNIT, PUTATIVE): 0.98 | fold change vs vehicle control (protein LMJF.21.1552 RNA HELICASE, PUTATIVE): 1 | fold change (protein LMJF.21.1555 HY[…], CONSERVED): 0.93 | fold change (protein LMJF.21.1580 HY[…], UNKNOWN FUNCTION): 1.08 | fold change (protein LMJF.21.1700 […] 2 SUBUNIT, PUTATIVE): 0.98 | fold change (protein LMJF.21.1710 […] OXIDASE SUBUNIT VI, PUTATIVE): 1.07 | fold change (protein LMJF.22.0270 HY[…], CONSERVED): 0.91 | fold change (protein LMJF.22.0420 40S RIBOSOMAL PROTEIN S15, PUTATIVE): 0.86 | fold change (protein LMJF.22.1540 ALANYL-TRNA SYNTHETASE, PUTATIVE): 0.96 | fold change (protein LMJF.22.1630 CCR4 […], PUTATIVE): 0.84 | fold change (protein LMJF.23.0110 GDP-MANNOSE PYROPHOSPHORYLASE): 1.02 | fold change (protein LMJF.23.0200 ENDORIBONUCLEASE L-PSP (PB5), PUTATIVE): 0.99 | fold change (protein LMJF.23.0640 HY[…], CONSERVED): 1.11 | fold change (protein LMJF.23.0810 ACTIN I[…]-LIKE PROTEIN): 0.93 | fold change vs vehicle control (protein LMJF.24.0280 DYNEIN INTERMEDIATE-CHAIN-LIKE PROTEIN): 1.03 | fold change (protein LMJF.24.0770 MALIC ENZYME, PUTATIVE): 0.9 | fold change (protein LMJF.24.1840 LYSOPHOSPHOLIPASE, PUTATIVE): 1.11 | fold change (protein LMJF.25.0120 ELECTRON TRANSFER FLAVOPROTEIN, PUTATIVE): 0.97 | fold change (protein LMJF.25.1540 HYPOTHETICAL PROTEIN, CONSERVED (mitochondrial RNA binding complex 1 subunit, putative)): 0.9 | fold change (protein LMJF.25.1710 PYRUVATE DEHYDROGENASE E1 BETA SUBUNIT, PUTATIVE): 1.04 | fold change (protein LMJF.26.0830 […], PUTATIVE,ASPARTATE--AMMONIA LIGASE, PUTATIVE): 1.24 | fold change (protein LMJF.26.1960 HYPOTHETICAL PROTEIN, CONSERVED): 0.94 | fold change (protein LMJF.26.2000 HYPOTHETICAL PROTEIN, CONSERVED (methyltransferase domain containing protein, putative)): 1 | fold change (protein LMJF.27.0130 HYPOTHETICAL PROTEIN, CONSERVED): 0.83 | fold change (protein LMJF.27.0880 2-OXOGLUTARATE DEHYDROGENASE SUBUNIT, PUTATIVE): 0.9 | fold change (protein LMJF.27.0930 ISOVALERYL-COA DEHYDROGENASE, PUTATIVE): 1.07 | fold change vs vehicle control (protein LMJF.27.1300 HYPOTHETICAL PROTEIN, CONSERVED): 0.99 | fold change (protein LMJF.27.1310 ARGINYL-TRNA SYNTHETASE, PUTATIVE): 1.08 | fold change (protein LMJF.27.2030 BRANCHED-CHAIN AMINO ACID AMINOTRANSFERASE, PUTATIVE): 0.96 | fold change (protein LMJF.27.2400 HEAT SHOCK PROTEIN DNAJ, PUTATIVE): 1.06 | fold change (protein LMJF.28.0980 P27 PROTEIN, PUTATIVE): 1.03 | fold change vs vehicle control (protein LMJF.28.2260 GLYCOSOMAL MEMBRANE PROTEIN, PUTATIVE): 1 | fold change (protein LMJF.28.2420 2-OXOGLUTARATE DEHYDROGENASE, E2 COMPONENT, DIHYDROLIPOAMIDE SUCCINYLTRANSFERASE, PUTATIVE): 0.96 | fold change (protein LMJF.28.2510 ACYL-COA DEHYDROGENASE, PUTATIVE): 1.04 | fold change (protein LMJF.28.2680 CYTOCHROME OXIDASE ASSEMBLY PROTEIN-LIKE PROTEIN): 0.91 | fold change (protein LMJF.28.2750 ACTIVATED PROTEIN KINASE C RECEPTOR (LACK)): 1.13 | fold change (protein LMJF.29.0020 TRANSCRIPTION FACTOR-LIKE PROTEIN): 1 | fold change (protein LMJF.29.0820 CYSTEINE PEPTIDASE C (CPC)): 1.15 | fold change (protein LMJF.29.2240 AMINOPEPTIDASE, PUTATIVE,METALLO-PEPTIDASE, CLAN MA(E), FAMILY M1): 0.9 | fold change vs vehicle control (protein LMJF.30.0120 […] SYNTHASE): 1.01 | fold change (protein LMJF.30.0460 ASPARTYL-TRNA SYNTHETASE, PUTATIVE): 1.03 | fold change (protein LMJF.30.0630 HISTIDYL-TRNA SYNTHETASE, PUTATIVE): 1.11 | fold change (protein LMJF.30.0750 4-METHYL-5(BETA-HYDROXYETHYL)-THIAZOLE MON[…] PROTEIN, PUTATIVE): 1.03 | fold change (protein LMJF.30.2330 HY[…], UNKNOWN FUNCTION): 1.08 | fold change (protein LMJF.30.2350 SPHINGOSINE 1-PHOSPHATE LYASE): 1.06 | fold change (protein LMJF.30.2550 HEAT SHOCK 70-RELATED PROTEIN 1, MIT[…], PUTATIVE): 1.09 | fold change (protein LMJF.30.2970 GLYCERALDEHYDE 3-PHOSPHATE DEHYDROGENASE, GLYCOSOMAL): 0.99 | fold change (protein LMJF.30.3040 EUKARYOTIC TRANSLATION INITIATION FACTOR 3 SUBUNIT 7-LIKE PROTEIN): 0.99 | fold change (protein LMJF.30.3130 VALYL-TRNA SYNTHETASE, PUTATIVE): 1 | fold change (protein LMJF.30.3530 HYPOTHETICAL PROTEIN, CONSERVED): 0.99 | fold change (protein LMJF.30.3600 ATP SYNTHASE, EPSILON CHAIN, PUTATIVE): 0.93 | fold change (protein LMJF.31.0440 CYTOSKELETON-[…] CAP5 5, PUTATIVE): 1.02 | fold change (protein LMJF.31.1110 HY[…], CONSERVED (emp24/gp25L/p24 family/GOLD, putative)): 1.04 | fold change (protein LMJF.31.2280 ADP-RI[…], PUTATIVE): 1.12 | fold change (protein LMJF.31.2790 ADP-RI[…], PUTATIVE): 0.97 | fold change (protein LMJF.32.0050 PROTEIN TRANSPORT PROTEIN SEC13, PUTATIVE): 0.94
